Data from paper PMC6994238.

Target: FAP52, Chlamydomonas reinhardtii (Chlamydomonas reinhardtii)
Test: cryo-EM structure; taxol-stabilised, 0.6 M NaCl-washed doublet microtubules isolated from Chlamydomonas flagella; 16 nm repeat map, focused refinement of the inner junction to 3.6 Å; atomic model PDB 6VE7

B1: FAP20, Chlamydomonas reinhardtii (protein, UniProt A8IU92 1-190)
chain: MFKNAFQSGFLSVLYSIGSKPLEIWDKQVSNGHIKRITDADIQSSVLEIMGQNVSTTYITCPADPNKTLGIKLPFLVLIIKNLNKYFSFEVQVLDDKNVRRRFRASNYQSTTRVKPFICTMPMRLDSGWNQIQFNLSDFTRRAYGTNYIETLRVQVHANCRIRRIYFSDRLYSEEELPAEFKLFLPIQKS
B1 was tested, and the binding was “binds”.

These are yes or no findings as the source states them, for the method shown. A result given as binding can be weak or reduced; the word gives no strength.
